# Measured values taken from patent US20100021434A1, “Isolated Oligodendrocyte-Like Cells and Populations Comprising Same for the Treatment of CNS Diseases” (Ramot At Tel Aviv University Ltd., priority 2005, published 2010).
# At least one structure is not confirmed: it was looked up by name or label, or the drawing left a doubt.
# System: mouse MSCs
# Experiment: Oligodendrocyte-like differentiation of mouse MSCs, morphology
# Type: cell-based
# Settings: MSCs of C57-EGFP transgenic mice, growth medium plus cytokines, 6 days
# Procedure: Oligodendrocyte-like Differentiation of mouse MSCs: 3.2*10^3 mMSCs per well from transgenic EGFP+ C57/b1 mice (that have constitutive expression of EGFP in all their cells), were cultured in growth medium (15% FCS, 5% HS, 2 mM L-glutamine, 0.001% β-mercaptoethanol, 10 ng/ml epidermal growth factor, 100 U/ml Penicillin, 100 μg/ml Streptomycin and 12.5 U/ml Nystatin in α-DMEM), and then transferred to mediums containing different cytokines, hormones and growth factors (See table 2 hereinbelow) that play roles in oligodendrocyte lineage differentiation process, to examine the effects of those substances on the cells. The cells were incubated in the differentiation mediums for 48 hours or 6 days, and then were fixed in 4% PFA for 5 minutes in RT and 20 minutes in 4° C. and photographed for morphological changes.
smiles,measurement,value
"CC1=C(/C=C/C(C)=C/C=C/C(C)=C/C(=O)O)C(C)(C)CCC1 [Retinoic acid, reference compound]",cell morphology (FIGS. 3A-F),did not alter drastically
